The list shows a part of the results.

For the assay, the target named is T1, OsSMF1 (Oryza sativa, UniProt Q6ZLB0 1-436).
T1 sequence: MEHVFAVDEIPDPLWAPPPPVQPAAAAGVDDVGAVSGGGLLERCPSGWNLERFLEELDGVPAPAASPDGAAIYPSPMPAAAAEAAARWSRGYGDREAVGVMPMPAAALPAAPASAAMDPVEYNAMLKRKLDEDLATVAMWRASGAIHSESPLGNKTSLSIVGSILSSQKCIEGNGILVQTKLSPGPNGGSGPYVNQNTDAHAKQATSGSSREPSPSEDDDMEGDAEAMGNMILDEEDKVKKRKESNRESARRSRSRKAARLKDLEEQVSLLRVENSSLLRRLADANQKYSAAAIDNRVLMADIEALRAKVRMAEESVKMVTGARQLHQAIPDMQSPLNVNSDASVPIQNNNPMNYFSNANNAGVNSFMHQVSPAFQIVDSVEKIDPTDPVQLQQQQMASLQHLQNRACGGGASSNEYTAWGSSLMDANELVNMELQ
Put plainly: protein-binding microarray (RPBM); PBS, 2% BSA, 51.3 ng/ul salmon testes DNA, 50 uM zinc acetate, 200 nM TF, 25 C, 1 h; high values mean tight binding. The note with it: protein: recombinant; tags: N-terminal polyhistidine and DsRed monomer fusion (pET32a); chain copies: 2; label: CyDye5-dUTP incorporated in the synthesized complementary strand; 3' TTTTT single-stranded linker to array surface; dsDNA, one strand shown. In short, it runs like this:
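Binding signal is reported as fluorescence intensity per feature (arbitrary units) from an Axon 4000B scanner. Incubation used 200 nM of each Ni–NTA-purified, N-terminally polyhistidine- and DsRed-fused transcription factor from E. coli BL21-CodonPlus on a double-stranded custom Agilent array for 1 h at 25 °C, with 50 µM zinc acetate in the buffer, followed by washing.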
As for “AAATAGGAGTTACATTTCGTACGTGTTATCCAACGGCCCACGGAGTCACCTAGTGCAG”, the binding signal is 4280 fluorescence intensity (a.u.). In the case of “TAACTAATTACACATATTGCGTGTAAATTGCGAGACAAATCGGAGTCACCTAGTGCAG”, the binding signal is 4240 fluorescence intensity (a.u.). To “TGCACGCTAATTTGCCTTGCTGCTGCTGCTACTAGGGCGGCGGAGTCACCTAGTGCAG” belongs 3450 fluorescence intensity (a.u.); to “CAAGTGTTGCAAGTGCATGCGCGTCACTGGTTTGCGGCGGCGGAGTCACCTAGTGCAG”, 4820 fluorescence intensity (a.u.). To “ACACACTTTTCGCCACCGTGGTGAGATGATGATTACTCATCGGAGTCACCTAGTGCAG” belongs 8100 fluorescence intensity (a.u.). To “CTTGGTGGACCGCGTGATGACGTCAGCAGCGGCTCGGCGACGGAGTCACCTAGTGCAG” belongs 14700 fluorescence intensity (a.u.); to “GTATTCCAGTTGGCAGCCCAGTTATAGTATCTGTATTTGTCGGAGTCACCTAGTGCAG”, 4030 fluorescence intensity (a.u.).

Consider “GAGGAGAGGGGAGGGGAACCCAAGCAAGCAATCAGCGTGGCGGAGTCACCTAGTGCAG”, for which the binding signal is 3700 fluorescence intensity (a.u.). To “TTACTCTAATCAGGAGGTTTATTCCTCTTCGTGGATCGAGCGGAGTCACCTAGTGCAG” belongs 28100 fluorescence intensity (a.u.).

Turning to “GTGCGGGATCCAGTCAGCACCGCCGCCCTCCCGCCCGGTTCGGAGTCACCTAGTGCAG”, the binding signal was 7160 fluorescence intensity (a.u.).

Take “TATATATATATATATATATGTATGTATGTATGTATGTATGCGGAGTCACCTAGTGCAG”: the binding signal is 3160 fluorescence intensity (a.u.). Take “GCATTGACATTAGCCACGAAAGCAACAAGGGATCCTTTGTCGGAGTCACCTAGTGCAG”: the binding signal is 3290 fluorescence intensity (a.u.). Turning to “CTCACATGACTCATGTTAAGAGAGCACATATGTTTCTCTGCGGAGTCACCTAGTGCAG”, the binding signal is 4600 fluorescence intensity (a.u.). To “TTTTCGAGCTCTTCCAACGTCACACCTCTTATCATTTTGACGGAGTCACCTAGTGCAG” belongs 5300 fluorescence intensity (a.u.). On to “CGTGTACGTATTAATCGTATACGTGTACGTCGGTGTCCTGCGGAGTCACCTAGTGCAG”, for which the binding signal is 9780 fluorescence intensity (a.u.). To “TTTGTCGAACAGCTAACACGTACGATGAGCGGCTCGCCGGCGGAGTCACCTAGTGCAG” belongs 3160 fluorescence intensity (a.u.).

Turning to “ATTGGTTCTGACGTAGATAAATACCTACAACCTTAACCCTCGGAGTCACCTAGTGCAG”, the binding signal was 4570 fluorescence intensity (a.u.). Take “AGTTTGGTGAAATCGATAGTATACACCTTGCTAGGAACATCGGAGTCACCTAGTGCAG”: the binding signal was 3770 fluorescence intensity (a.u.). To “GCCCACGCTCACCGACTCCATCGACGTCACGCTCACCGCCCGGAGTCACCTAGTGCAG” belongs 5090 fluorescence intensity (a.u.).

In the case of “ATTTTAGCGCCAATGCACCATGTCAGACCATTCAATTGTGCGGAGTCACCTAGTGCAG”, the binding signal was 3610 fluorescence intensity (a.u.). Consider “TTTTACGTATTCTTTGAGGGATTCCAAGAGCTGTCTCTCTCGGAGTCACCTAGTGCAG”, for which the binding signal was 3300 fluorescence intensity (a.u.).

“TAGGTGTGCTGGAAGTGGGAGTGGGTAGGTATTCTTGTTTCGGAGTCACCTAGTGCAG”: the binding signal is 4310 fluorescence intensity (a.u.). For the sequence “TGAGGTTGGGGTTGTGGCGCGGGACGAAGGCGGAGGACTCCGGAGTCACCTAGTGCAG”, the binding signal is 3460 fluorescence intensity (a.u.).

Consider “TTTTGATCCCGGATTTGGCCTACGTGGTGGCTGAGTTAGCCGGAGTCACCTAGTGCAG”, for which the binding signal was 7060 fluorescence intensity (a.u.). To “TTATACATGCTCACGTGGCTATGTCATTGCCCTGGGTGGGCGGAGTCACCTAGTGCAG” belongs 12000 fluorescence intensity (a.u.).

As for “AAACATTTAGACCATAAAACCTATGTTTATGTGTCACACGCGGAGTCACCTAGTGCAG”, the binding signal is 4000 fluorescence intensity (a.u.). To “GCCCGGCTGACCATGCATGACCCTCGTCGGCCTCCTCGCGCGGAGTCACCTAGTGCAG” belongs 4190 fluorescence intensity (a.u.); to “AGGTAAAAGGGCAAATATCTAATTTCCCATTATTTGTTTGCGGAGTCACCTAGTGCAG”, 3560 fluorescence intensity (a.u.); to “ACAGGTAGCTCCATATCTTGTTCATATTGACATACACAATCGGAGTCACCTAGTGCAG”, 31500 fluorescence intensity (a.u.). To “CGCCAAGCGCATTGGCGCTGAGGTTGGCCGTGTCAGCGCCCGGAGTCACCTAGTGCAG” belongs 6150 fluorescence intensity (a.u.); to “GACAACCCTAAACGCCGTTCTTATAGTGTTGACTCAGCGTCGGAGTCACCTAGTGCAG”, 8300 fluorescence intensity (a.u.). In the case of “CTGAAATTAATAGATCTAGTGGTACACGCGGCTTGCATGACGGAGTCACCTAGTGCAG”, the binding signal is 3860 fluorescence intensity (a.u.).

Regarding “ATACACACATATCCGCGCCATTATAAATTTGACAGCATTTCGGAGTCACCTAGTGCAG”, the binding signal is 3440 fluorescence intensity (a.u.). As to “GAGGACAGGCGGTGACCGGCTGACCGCGGACATGACGCACCGGAGTCACCTAGTGCAG”, the binding signal was 5230 fluorescence intensity (a.u.). In the case of “CGGTTTGTGCGGCAAGACGTGGCTTAACCTGTGCGTGTGTCGGAGTCACCTAGTGCAG”, the binding signal was 4240 fluorescence intensity (a.u.). To “ACCGCCCAGCCGCCGCACGTGGTCGAATCGGCCTCCGTGTCGGAGTCACCTAGTGCAG” belongs 3890 fluorescence intensity (a.u.). Turning to “AACCCTGGGTTTCCGTGTCTAACGTTTGACCGTCCGCCTTCGGAGTCACCTAGTGCAG”, the binding signal was 3440 fluorescence intensity (a.u.). To “CCCACCCACCCACTGCATTCATCTCTCCTCTCTATCTCTTCGGAGTCACCTAGTGCAG” belongs 3250 fluorescence intensity (a.u.); to “TTCATCTTTATCAACAAACGAACGCCACCTCAATATCTATCGGAGTCACCTAGTGCAG”, 4270 fluorescence intensity (a.u.). As to “GGAACAGGTCGCCGCAGGGGCACGGGTACGTGTACGCCCCCGGAGTCACCTAGTGCAG”, the binding signal is 3310 fluorescence intensity (a.u.). To “CCTCAAAATTGCAGGGGCGGAGATGGGGATGGTAGTTTACCGGAGTCACCTAGTGCAG” belongs 3330 fluorescence intensity (a.u.); to “GATCTGTAGCCAGCTGCAGCACGAGCTCTAATAAACCATGCGGAGTCACCTAGTGCAG”, 7100 fluorescence intensity (a.u.).
